The values that follow come from PubChem BioAssay AID2685 (National Center for Advancing Translational Sciences (NCATS), 2010).

The nature of the test: qHTS Assay for Lipid Storage Modulators in Drosophila S3 Cells.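 On cell number change: cells counted by Cell Tracker Red CMTPX staining in the red channel.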 The note with it: BODIPY lipid droplet fluorescence, 18-24 h; for cell number change: measured here: cell count max response, cells fed with added oleic acid. The procedure, abridged:
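Drosophila S3 cells got compounds at several concentrations plus oleic acid (400 uM solution). Laser-scanning cytometry with 488 nm excitation read lipid droplets at 500-530 nm and cells at 575-640 nm. Percent activity was relative to 20 uM Triacsin C.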

The mark [1] stands for this setting: measured here: lipid fluorescence (Fed channel) AC50, cells fed with added oleic acid.
Where [2] appears, read: measured here: cell number channel AC50, cells fed with added oleic acid.

Molecules are shown by their SMILES. Some of the results follow. These are further read-outs of the screen, such as a control signal, another cell line or another target. No call is given for them. Most of these compounds were active or inconclusive in the main read-out, so they are no random draw. Potencies come from curve fits of mixed quality, noted in brackets.

In general, AC50 refers to the concentration at which the activity in the assay is half-maximal. A higher AC50 goes with activity only at high concentration. Take `CC(=O)c1ccc(NC(=O)CSc2nnc(Cn3cnc4ccccc43)o2)cc1`: the cell number change is 16.1%. The concentration at half-maximal activity (AC50) under setting [1] was 25.9 µM [rising, partial curve, poor fit].
As to `Clc1ccc(-c2nc(N3CCOCC3)nc3ccccc23)cc1`, the cell number change is -5.11%.
As to `CN(C)c1ccc(C2NC(=O)c3ccccc3N2)cc1` (configuration not stated), the cell number change is -39.6%. In addition, the half-maximal activity concentration (AC50) under setting [2] is 3.66 µM [falling, partial curve, poor fit].
With `COc1cc(NC(=O)Cn2cnc(S(=O)(=O)N3CCC(C)CC3)c2)cc(OC)c1OC`, the cell number change worked out at 3.24%. In addition, under setting [1], the concentration at half-maximal activity (AC50) is 18.4 µM [rising, single point].
In the case of `COc1ccc(C2C(C(=O)c3cc4cccc(OC)c4o3)=C(O)C(=O)N2CCCN(C)C)cc1OC` (configuration not stated), the cell number change amounted to 15.3%. In addition, under setting [2], the AC50 was 0.00461 µM [rising, full curve, poor fit]. Besides, the AC50 under setting [1] was 0.58 µM [falling, full curve].
Consider `S=C(Nc1cccc(Cl)c1)NC1CC2CCCC(C1)N2C1CCCC1` (configuration not stated), for which the cell number change worked out at 8.41%. The concentration at half-maximal activity (AC50) under setting [2] was 4.11 µM [rising, single point].
With `Cc1cc(C)c(S(=O)(=O)N2CCCCC2CCNC(=O)C(=O)NCCN2CCOCC2)c(C)c1` (configuration not stated), the concentration at half-maximal activity (AC50) under setting [1] is 6.51 µM [falling, single point].
In the case of `CCOc1ccc2nc(N3CCC(C(=O)NCCCN4CCOCC4)CC3)sc2c1`, the cell number change is -4.48%. Also, the AC50 under setting [1] is 0.461 µM [falling, full curve].
Consider `Cn1cnnc1SCc1cccc(Br)c1`, for which the cell number change is 35.3%. Under setting [2], the AC50 was 18.4 µM [rising, partial curve, poor fit]. Further, the half-maximal activity concentration (AC50) under setting [1] is 18.4 µM [rising, partial curve, poor fit].
`CN(c1cccc(NC(=O)CCSc2ccccc2)c1)S(C)(=O)=O`: the cell number change is -1.15%. Moreover, under setting [1], the AC50 was 29.1 µM [rising, single point].
For `CCn1ncc(S(=O)(=O)NCc2ccccc2Cl)c1C`, the cell number change was -9.12%. Under setting [1], the AC50 is 6.51 µM [falling, single point].
On to `Fc1ccccc1C1CC(c2ccco2)=Nc2ccccc2S1` (configuration not stated), for which the cell number change is -31.2%. Besides, under setting [2], the concentration at half-maximal activity (AC50) is 18.4 µM [falling, single point]. Further, the concentration at half-maximal activity (AC50) under setting [1] was 18.4 µM [falling, single point].
As for `COc1cc(C2SCC(=O)N2CCc2ccc(OC)c(OC)c2)ccc1O` (configuration not stated), the cell number change was -49.8%. For the same compound, the AC50 under setting [2] was 4.61 µM [falling, full curve, poor fit]. Under setting [1], the AC50 was 4.61 µM [falling, full curve].
In the case of `COc1ccc(/C=C(/NC(=O)c2ccc(OC)cc2)C(=O)NCCc2c[nH]c3ccccc23)cc1`, the cell number change was 1.18%. The AC50 under setting [1] is 0.82 µM [rising, partial curve].
Consider `Cc1cc(NC(=O)OC(C)C)ccc1-c1ccc(NC(=O)OC(C)C)cc1C`, for which the cell number change was 35.7%. For the same compound, under setting [2], the AC50 is 0.326 µM [rising, full curve, poor fit]. Also, the half-maximal activity concentration (AC50) under setting [1] is 0.461 µM [rising, full curve].
Regarding `N#C/C(=C\C1=C(N2CCOCC2)C(=C/c2cccc([N+](=O)[O-])c2)/CC1)C(=O)Nc1ccccc1F`, the AC50 under setting [1] was 2.59 µM [falling, full curve].
Consider `CCn1c(=O)c2sccc2n(CC(=O)NCCC2=CCCCC2)c1=O`, for which the cell number change stood at 13.7%. The AC50 under setting [1] was 1.46 µM [falling, full curve].
Consider `Cn1c(C(=O)OC(C(=O)NC2CCCCC2)c2cccnc2)cc2sccc21` (configuration not stated), for which the AC50 under setting [2] is 1.03 µM [rising, partial curve].
Take `CN(C)c1ccc(NC(=O)Nc2ccc3snnc3c2)cc1`: the cell number change stood at 16.8%. Besides, under setting [1], the concentration at half-maximal activity (AC50) was 0.461 µM [rising, full curve, poor fit].
As to `CC(C)(C)c1cc(Cc2ccccc2)[nH]n1`, the cell number change was -4.56%.
For the compound `Nc1nc2nccc(-c3ccco3)n2n1`, the cell number change was -52.9%. Further, under setting [2], the AC50 is 1.46 µM [falling, full curve, poor fit]. In addition, under setting [1], the AC50 is 1.46 µM [falling, partial curve].
For the compound `C=CCNC(=O)c1ccccc1Cl`, the cell number change is 106%. Further, the AC50 under setting [2] was 29.1 µM [rising, single point].
Turning to `Cn1c(=S)[nH]c2ccccc21`, the cell number change is 30.9%. In addition, the half-maximal activity concentration (AC50) under setting [2] was 0.206 µM [rising, full curve, poor fit].
On to `Cc1c(C#N)c2ncn(Cc3ccccn3)c(=O)c2n1-c1ccccc1`, for which the cell number change worked out at 22.1%. For the same compound, under setting [2], the AC50 was 0.366 µM [rising, single point].
As for `COc1ccc(NC(C)=O)cc1NC(C)C(=O)Nc1cccc2ccccc12` (configuration not stated), the cell number change is 23.7%. Under setting [1], the AC50 is 23.1 µM [rising, partial curve].
`COCCN(C(=O)COC(=O)CSc1ccc(Cl)cc1)c1c(N)n(CC(C)C)c(=O)[nH]c1=O`: the cell number change is -17.5%. Also, under setting [1], the half-maximal activity concentration (AC50) was 6.51 µM [falling, single point].
Turning to `CCCOc1ccc(-c2nc(C#N)c(NCCCn3ccnc3)o2)cc1`, the cell number change was -13.9%. Further, under setting [1], the half-maximal activity concentration (AC50) is 0.116 µM [rising, full curve, poor fit].
On to `CCOc1ccc(N2CC(C(=O)N3CCCCCC3)CC2=O)cc1` (configuration not stated), for which the cell number change worked out at 25.6%. The concentration at half-maximal activity (AC50) under setting [1] is 18.4 µM [rising, partial curve].
For `CCOc1ccc(S(=O)(=O)NCc2cccnc2)c2ccccc12`, the cell number change was -6.09%. Moreover, under setting [1], the AC50 was 29.1 µM [falling, single point].
As for `CC(=O)Nc1cccc(C(=O)/C=C/c2cccs2)c1`, the cell number change is -82.5%. Further, the half-maximal activity concentration (AC50) under setting [2] is 18.4 µM [falling, partial curve]. Further, under setting [1], the concentration at half-maximal activity (AC50) is 0.13 µM [falling, full curve].
As for `Cc1ccc(C)c(OCCC(=O)NNC(=O)Cn2nc(C)cc2C)c1`, the half-maximal activity concentration (AC50) under setting [2] was 6.51 µM [falling, single point].
Take `COc1cccc(C(=O)NCCNC(=O)c2ccco2)c1`: the cell number change came out at 15.8%. For the same compound, the AC50 under setting [2] is 0.00461 µM [rising, full curve, poor fit].
For `COc1ccc(C)cc1NC(=O)CNC(c1ccccc1)c1ccc(C)cc1` (configuration not stated), the cell number change is 101%. Also, the AC50 under setting [2] is 23.1 µM [rising, partial curve]. Also, the half-maximal activity concentration (AC50) under setting [1] was 20.6 µM [rising, partial curve].
Regarding `Cc1ccccc1Oc1cccc(C(=O)/C(C#N)=C/N(C)C)c1`, the cell number change was found to be 3.64%. Besides, the concentration at half-maximal activity (AC50) under setting [2] was 6.51 µM [rising, single point]. Moreover, the half-maximal activity concentration (AC50) under setting [1] is 6.51 µM [rising, single point].
On to `Cc1cccc(C(=O)Oc2ccccc2-c2nnco2)c1`, for which the AC50 under setting [2] was 0.116 µM [falling, full curve, poor fit].
`CSc1nc(-c2cccs2)c(C#N)c(=O)[nH]1`: the cell number change is -30.9%. For the same compound, the AC50 under setting [2] is 0.731 µM [falling, full curve].
As to `Oc1ccccc1-c1nnc(COc2ccccc2)o1`, the cell number change came out at 8.97%. In addition, the half-maximal activity concentration (AC50) under setting [2] is 0.146 µM [rising, full curve, poor fit]. For the same compound, under setting [1], the AC50 was 0.164 µM [rising, full curve, poor fit].
